Results as given in paper PMC11600598.
No constants are given. Whether binding was seen depends on the method and setting. In cells and extracts the contact can be indirect. A yes stands for co-enrichment or nearness to the bait. Other partners may have been found.

Protein sequences, listed by entry. Tags and fused reporters are not part of them.
UniProt P18848: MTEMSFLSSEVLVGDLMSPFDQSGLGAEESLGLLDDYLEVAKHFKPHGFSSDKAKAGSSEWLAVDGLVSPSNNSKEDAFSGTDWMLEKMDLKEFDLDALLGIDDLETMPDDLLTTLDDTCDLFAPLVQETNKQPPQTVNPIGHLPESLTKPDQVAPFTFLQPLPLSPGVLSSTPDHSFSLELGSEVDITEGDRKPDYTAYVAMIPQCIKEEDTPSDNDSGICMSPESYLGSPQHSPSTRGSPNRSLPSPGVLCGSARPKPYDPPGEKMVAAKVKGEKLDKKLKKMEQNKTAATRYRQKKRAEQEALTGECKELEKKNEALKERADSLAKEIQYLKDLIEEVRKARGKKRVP
UniProt Q14974: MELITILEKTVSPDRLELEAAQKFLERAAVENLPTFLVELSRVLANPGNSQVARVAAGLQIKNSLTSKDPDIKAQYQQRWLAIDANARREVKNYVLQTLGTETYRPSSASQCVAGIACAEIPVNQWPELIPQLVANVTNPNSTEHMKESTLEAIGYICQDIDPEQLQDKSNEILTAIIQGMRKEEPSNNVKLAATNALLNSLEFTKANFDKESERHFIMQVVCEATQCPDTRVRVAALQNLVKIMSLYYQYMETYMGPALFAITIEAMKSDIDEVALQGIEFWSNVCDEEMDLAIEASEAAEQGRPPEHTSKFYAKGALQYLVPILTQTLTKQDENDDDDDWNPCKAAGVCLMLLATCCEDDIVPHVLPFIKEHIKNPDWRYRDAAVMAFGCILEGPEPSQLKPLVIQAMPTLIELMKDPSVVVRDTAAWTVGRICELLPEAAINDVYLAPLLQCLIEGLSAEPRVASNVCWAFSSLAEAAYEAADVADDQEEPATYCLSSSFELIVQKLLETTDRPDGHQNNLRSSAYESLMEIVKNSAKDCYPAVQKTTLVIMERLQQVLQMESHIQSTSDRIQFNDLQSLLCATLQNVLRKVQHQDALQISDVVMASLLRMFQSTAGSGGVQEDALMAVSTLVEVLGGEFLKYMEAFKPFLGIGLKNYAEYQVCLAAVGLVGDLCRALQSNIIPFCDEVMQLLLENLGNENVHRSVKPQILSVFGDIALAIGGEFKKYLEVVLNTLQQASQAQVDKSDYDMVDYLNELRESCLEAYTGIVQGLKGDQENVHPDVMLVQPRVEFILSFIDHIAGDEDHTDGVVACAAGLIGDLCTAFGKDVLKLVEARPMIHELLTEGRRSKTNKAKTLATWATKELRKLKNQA

Target: Activating transcription factor 4 (human (endogenous in DPSCs)) (UniProt P18848)
Assay: affinity purification with mass spectrometry; ATF4 IP from 1 mg DPSC lysate (OM for 3 days compared with control medium), primary antibody or isotype IgG overnight at 4 °C, Pierce Classic Magnetic IP/Co-IP kit, LC-MS/MS

Importin subunit beta-1 (from UniProt Q14974 1-876)
binding: binds
